Experimental data: PubChem BioAssay AID743121 (NCATS, 2013)
The whole screen tested about 26,000 reagents; shown is a part drawn at random. 167 of them (0.63%) were called active. 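Calls are per gene from RSA p-values that are not deposited; an individual active-marked siRNA can sensitise only weakly.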 Reagents against one gene are numbered here. Not all columns of the deposit are shown. No sequences are given here.

Test: 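Genes whose silencing strengthens cell killing by camptothecin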 (primary screen)
System: MDA-MB-231 cells, a human breast cancer line
Reagents: single siRNA against human genes, 20 nM siRNA (0.8 pmol per well)
Time to read-out: 120 h (drug added 48 h after transfection, read 72 h later)
Challenge: camptothecin 20 nM (about EC30) for 72 h; vehicle 0.1% DMSO in parallel plates
Detection: 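Cell viability by ATP luminescence (CellTiter-Glo) as % of non-targeting siRNA wells, and the log2 ratio of viability without drug over viability with camptothecin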
Scale: log2 vehicle/camptothecin viability: higher = stronger sensitisation to camptothecin
Active means: 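Active genes have an RSA gene-level p-value below 0.001, computed from the ratios of their separate siRNAs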

log2 vehicle/camptothecin viability, by target and reagent
ADGRF2P (GeneID 222611): #1 -0.243 inactive; #2 0.0524 inactive; #3 -0.214 inactive; #4 0.198 inactive
GRIN3A (GeneID 116443): #1 -0.0481 inactive; #2 -0.223 inactive; #3 0.032 inactive; #4 -0.251 inactive
PLXNB1 (GeneID 5364): #1 0.00712 inactive; #2 -0.402 inactive; #3 -0.0451 inactive; #4 -0.581 inactive
MAP3K12 (GeneID 7786): #1 1.25 inactive; #2 -0.298 inactive; #3 -0.414 inactive; #4 -0.163 inactive
CPA3 (GeneID 1359): #1 0.00648 inactive; #2 -0.387 inactive; #3 -0.104 inactive; #4 -0.288 inactive
RAB11B (GeneID 9230): #1 -0.345 inactive; #2 -0.0184 inactive; #3 -0.168 inactive
CYP2A7 (GeneID 1549): #1 -0.641 inactive; #2 -0.131 inactive; #3 -0.327 inactive; #4 0.0826 inactive
TRPM7 (GeneID 54822): #1 -0.319 inactive; #2 0.527 inactive; #3 -0.699 inactive; #4 -0.67 inactive
TRIM9 (GeneID 114088): #1 -0.251 inactive; #2 -0.554 inactive; #3 -0.309 inactive; #4 -0.126 inactive

9 consecutive entries from above:
log2 vehicle/camptothecin viability, by target and reagent
CPA3 (GeneID 1359): #2 -0.387 inactive; #3 -0.104 inactive; #4 -0.288 inactive
RAB11B (GeneID 9230): #1 -0.345 inactive; #2 -0.0184 inactive; #3 -0.168 inactive
CYP2A7 (GeneID 1549): #1 -0.641 inactive; #2 -0.131 inactive; #3 -0.327 inactive

Further entries:
log2 vehicle/camptothecin viability, by target and reagent
GNG3 (GeneID 2785): #1 -0.156 inactive; #2 -0.172 inactive; #3 -0.299 inactive; #4 0.121 inactive
MRGPRF (GeneID 116535): #1 -0.283 inactive; #2 0.104 inactive; #3 -0.415 inactive; #4 0.262 inactive
OR2A4 (GeneID 79541): #1 -0.151 inactive; #2 -0.553 inactive; #3 0.109 inactive; #4 -0.271 inactive
RHAG (GeneID 6005): #1 -0.496 inactive; #2 -0.00602 inactive; #3 -0.504 inactive; #4 -0.203 inactive
GRIN2B (GeneID 2904): #1 -0.512 inactive; #2 -0.0436 inactive; #3 0.0999 inactive; #4 -0.336 inactive
STAR (GeneID 6770): #1 0.122 inactive; #2 -0.459 inactive; #3 -0.00759 inactive; #4 0.0205 inactive
TIMD4 (GeneID 91937): #1 -0.813 inactive; #2 -0.472 inactive; #3 -0.179 inactive; #4 0.159 inactive
IFITM1 (GeneID 8519): #1 -0.149 inactive; #2 -0.207 inactive; #3 0.0204 inactive; #4 -0.428 inactive
PRAG1 (GeneID 157285): #1 -0.0271 inactive; #2 -0.559 inactive; #3 -0.124 inactive; #4 -0.44 inactive
